No constants are given. Whether binding was seen depends on the method and setting. Binding seen in cells or lysates may run through a third protein. A yes stands for co-enrichment or nearness to the bait. Other partners may have been found.
Biological target: Flag-NCOR2-013 (human)
Test: affinity purification with mass spectrometry

B1: JunB (protein, UniProt P17275 1-347)
chain: MCTKMEQPFYHDDSYTATGYGRAPGGLSLHDYKLLKPSLAVNLADPYRSLKAPGARGPGPEGGGGGSYFSGQGSDTGASLKLASSELERLIVPNSNGVITTTPTPPGQYFYPRGGGSGGGAGGAGGGVTEEQEGFADGFVKALDDLHKMNHVTPPNVSLGATGGPPAGPGGVYAGPEPPPVYTNLSSYSPASASSGGAGAAVGTGSSYPTTTISYLPHAPPFAGGHPAQLGLGRGASTFKEEPQTVPEARSRDATPPVSPINMEDQERIKVERKRLRNRLAATKCRKRKLERIARLEDKVKTLKAENAGLSSTAGLLREQVAQLKQKVMTHVSNGCQLLLGVKGHAF
For B1, the binding was “binds”.

Source: article PMC10579421
